Data published in patent publication US20210324080A1.
Residue numbers refer to the chain shown, from its start. Results are given in words; binding and its absence hold for the method and conditions named. Some results given as binding are weak or reduced against the parent protein; the word gives no strength. Blank lines part the entries; values can stand above or below the binder they belong to.

The chains behind the UniProt entries cited, without tags or fusion partners. Residues count along the entry.
UniProt P16410, residues 36-161: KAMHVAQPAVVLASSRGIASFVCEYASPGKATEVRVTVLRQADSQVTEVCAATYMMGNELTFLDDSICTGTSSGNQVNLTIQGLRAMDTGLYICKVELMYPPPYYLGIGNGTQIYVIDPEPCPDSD

Legend:
[1] = molecular target: CTLA-4-hFc (immunogen A; hFc-labeled CTLA-4 extracellular domain protein) (human) (UniProt P16410); experiment: competition ELISA: CTLA-4-hFc coated, antibody titrated, blocked ligand biotin-labeled B7.2-hFc, HRP-avidin, A450, inhibition (%)
[2] = molecular target: CTLA-4-hFc (immunogen A; hFc-labeled CTLA-4 extracellular domain protein) (human) (UniProt P16410); experiment: competition ELISA: CTLA-4-hFc coated, antibody titrated, blocked ligand biotin-labeled B7.1-hFc, HRP-avidin, A450, inhibition (%)
[3] = molecular target: CTLA-4-hFc (immunogen A; hFc-labeled CTLA-4 extracellular domain protein) (human) (UniProt P16410); experiment: receptor-ligand blocking assay: CTLA-4 protein, antibody titrated, blocked ligand B7.1, inhibition (%)

B1: 31C12F3 (chimeric antibody purified from hybridoma supernatant) (antibody, V domains shown)
VH: QVQLVESGGGVVQPGRSLILSCAASGFTFSSYGMHWVRQAPGKGLEWVAVVWYDGSNKYYADSVKGRFTISRDNSKNTLYLQMSSLRAEDTAVYYCARGGIVVPGLFEYWGQGSLVTVSS
VL: DIQMTQSPSSLSASVGDRVAITCRTSQSISNLLNWYQQKPGKAPELLIYAPSSFQSGVPSRFRGSGSGTDFTLTISSLQPEDFATYYCQQSYSTPFTFGPGTKVDIK
binding [1]: binds
binding [2]: binds

B2: 92C8B6 (chimeric antibody purified from hybridoma supernatant) (antibody, V domains shown)
VH: QVQLVESGGGVVQPGRSLRLSCAASGFTFSNFGMHWVRQAPGKGLEWVAVIWYDGSNKYYADSVKGRFTISRDNSKNTLFLQMNGLRAEDTAVYYCAKGGILMAGTLDYWGQGTLVTVSS
VL: B1 VL with A20T, T25A, I29V, N31T, L32Y, E45K, P51A, R63S, Y87F
binding [1]: binds
binding [2]: binds

B4: 31C12F3 fully human CTLA-4 antibody (human IgG1, kappa) (antibody, V domains shown)
VH: B1 VH
VL: B1 VL
binding [3]: binds

Now from value to binder:

binding [3]: binds
B3: 92C8B6 fully human CTLA-4 antibody (human IgG1, kappa) (antibody, V domains shown)
VH: B2 VH
VL: B1 VL with A20T, T25A, I29V, N31T, L32Y, E45K, P51A, R63S, Y87F

binding [1]: binds
binding [2]: binds
B5: 97A8D1 (chimeric antibody purified from hybridoma supernatant) (antibody, V domains shown)
VH: QVQLVESGGGVVQPGRSLRLSCVASGFTFNNYGMNWVRQAPGKGLEWVAVIWYGGRNKFYADSVKGRFTISRDNSKNTLYLEMNSLRAEDTAVYYCARADWGGWFDPWGQGTLVTVSS
VL: EIVLTQSPGTLSLSPGERATLSCRASQSVSSTYLAWYQQKPGQAPRLLIHGAFSRATGIPDRFSGSGSGPDFTLTISRLEPEDFAVYYCQQYGTSPFTFGPGTKVDIK

binding [3]: binds
B6: 97A8D1 fully human CTLA-4 antibody (human IgG1, kappa) (antibody, V domains shown)
VH: B5 VH
VL: B5 VL
